Measurements from article doi:10.1101/2022.11.16.516824.

Sequences of proteins named here, by UniProt entry; tags and fusion partners are left off. Residues count along the entry.
UniProt P31041, residues 20-218: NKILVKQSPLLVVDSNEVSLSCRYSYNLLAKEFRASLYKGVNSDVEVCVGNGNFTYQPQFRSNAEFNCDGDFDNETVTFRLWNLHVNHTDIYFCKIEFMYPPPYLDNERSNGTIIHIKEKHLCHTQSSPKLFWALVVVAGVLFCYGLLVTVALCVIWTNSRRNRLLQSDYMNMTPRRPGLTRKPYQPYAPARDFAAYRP
UniProt Q8BHD8: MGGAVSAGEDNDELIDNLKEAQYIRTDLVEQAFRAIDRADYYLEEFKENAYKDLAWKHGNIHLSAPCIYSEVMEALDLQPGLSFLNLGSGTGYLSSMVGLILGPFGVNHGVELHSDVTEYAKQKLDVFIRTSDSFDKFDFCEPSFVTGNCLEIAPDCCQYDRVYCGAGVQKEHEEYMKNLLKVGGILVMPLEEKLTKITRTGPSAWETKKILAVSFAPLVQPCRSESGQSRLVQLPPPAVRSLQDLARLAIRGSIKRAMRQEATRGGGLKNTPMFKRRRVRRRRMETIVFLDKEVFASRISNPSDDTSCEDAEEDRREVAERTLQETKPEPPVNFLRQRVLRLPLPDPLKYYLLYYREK
UniProt Q9CQW9: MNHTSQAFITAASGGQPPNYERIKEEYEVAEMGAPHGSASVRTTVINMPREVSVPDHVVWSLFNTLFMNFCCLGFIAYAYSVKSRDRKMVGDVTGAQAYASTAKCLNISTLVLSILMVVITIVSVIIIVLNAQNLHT

B1: Skap1 (protein, UniProt Q3UUV5 1-355)
chain: MQAVALPEEICWLLEDTEDFLAEGLQNENLSPGAQDQRAHILRGFQQIKSRYCWDFQPQGGDLGQDGSDDNLSGTHGPPLTSEASFWSDYQDEGIEDILRGAQELDSVIKQGYLEKKSKDHSFFGSEWQKRWCVISRGLFLYYANEKSKQPKGTFLIKGYSVRMAPHLRKDSKKESCFELISQDRRSYEFTASSPAEARDWVDQISFLLKDLSSLTIPFEEEEEEEEEEEKEEEEMYNDVDGFDSPRSGSQCRAMALPEPTEKEEDIYEVLPDDDDLEEDTCGAHRRRVDYADYYQGLWDCHGDQPDELSFQRGDLIRILSKEYNMYGWWVGELNSVIGIVPKDYLTTAFEMEGI
B2: IL2 receptor β subunit (Il2rb) (receptor, UniProt P16297 27-539)
chain: AVKNCSHLECFYNSRANVSCMWSHEEALNVTTCHVHAKSNLRHWNKTCELTLVRQASWACNLILGSFPESQSLTSVDLLDINVVCWEEKGWRRVKTCDFHPFDNLRLVAPHSLQVLHIDTQRCNISWKVSQVSHYIEPYLEFEARRRLLGHSWEDASVLSLKQRQQWLFLEMLIPSTSYEVQVRVKAQRNNTGTWSPWSQPLTFRTRPADPMKEILPMSWLRYLLLVLGCFSGFFSCVYILVKCRYLGPWLKTVLKCHIPDPSEFFSQLSSQHGGDLQKWLSSPVPLSFFSPSGPAPEISPLEVLDGDSKAVQLLLLQKDSAPLPSPSGHSQASCFTNQGYFFFHLPNALEIESCQVYFTYDPCVEEEVEEDGSRLPEGSPHPPLLPLAGEQDDYCAFPPRDDLLLFSPSLSTPNTAYGGSRAPEERSPLSLHEGLPSLASRDLMGLQRPLERMPEGDGEGLSANSSGEQASVPEGNLHGQDQDRGQGPILTLNTDAYLSLQELQAQDSVHLI
B3: Cish, Q62225 1-257 (protein)
chain: MVLCVQGSCPLLAVEQIGRRPLWAQSLELPGPAMQPLPTGAFPEEVTEETPVQAENEPKVLDPEGDLLCIAKTFSYLRESGWYWGSITASEARQHLQKMPEGTFLVRDSTHPSYLFTLSVKTTRGPTNVRIEYADSSFRLDSNCLSRPRILAFPDVVSLVQHYVASCAADTRSDSPDPAPTPALPMSKQDAPSDSVLPIPVATAVHLKLVQPFVRRSSARSLQHLCRLVINRLVADVDCLPLPRRMADYLRQYPFQL
B4: Asb6, Q91ZU1 1-418 (protein)
chain: MPFLHGFRRIIFEYQPLVDAILGALGIQDLERQEPLDDSASSEESRILVLTELLEQKAHSPFYQEGVSNALLKMAELGLTRAAAVLLQSGANLNFEDPVTYYTALHIAVLRNQPDMVELLVRHGADINRRDRIHESSPLDLASEEPERLPCLQRLLDLGADVNAADKNGKTALLHALASSDGVQIHNTENIRLLLEGGADVKATTKDGDTVFTCIIFLLGETVCGDKEEAPMINRFCFQVTQLLLAHGADPSECPAHESLTHICLKSFKLHFPLLCFLLESGAAYNCSLHGASCWSGFNLVFERLCSHPGCAEDDSHIELLHKAETVLDLMVTSSQRLQLPENLNIHPVGSLAGKIQALHASLRQLESYPPPLKHLCRVSIRLCLRPWPVDTKVKALPLPDRLKWYLLSAHSDTQDTC

molecular target: Cul5 with a C terminal HA-tag (mouse) (UniProt Q9D5V5); experiment: affinity purification with mass spectrometry; conditions: not given

Molecule	binding
Cd28 (from UniProt P31041 20-218) (receptor)	binds
Pcmtd2 (from UniProt Q8BHD8 1-359)	binds
Ifitm3 (from UniProt Q9CQW9 1-137)	binds
B1	binds
B2	binds

Molecular target: T1, Cul5 with a C terminal HA-tag (mouse), Q9D5V5
T1 chain: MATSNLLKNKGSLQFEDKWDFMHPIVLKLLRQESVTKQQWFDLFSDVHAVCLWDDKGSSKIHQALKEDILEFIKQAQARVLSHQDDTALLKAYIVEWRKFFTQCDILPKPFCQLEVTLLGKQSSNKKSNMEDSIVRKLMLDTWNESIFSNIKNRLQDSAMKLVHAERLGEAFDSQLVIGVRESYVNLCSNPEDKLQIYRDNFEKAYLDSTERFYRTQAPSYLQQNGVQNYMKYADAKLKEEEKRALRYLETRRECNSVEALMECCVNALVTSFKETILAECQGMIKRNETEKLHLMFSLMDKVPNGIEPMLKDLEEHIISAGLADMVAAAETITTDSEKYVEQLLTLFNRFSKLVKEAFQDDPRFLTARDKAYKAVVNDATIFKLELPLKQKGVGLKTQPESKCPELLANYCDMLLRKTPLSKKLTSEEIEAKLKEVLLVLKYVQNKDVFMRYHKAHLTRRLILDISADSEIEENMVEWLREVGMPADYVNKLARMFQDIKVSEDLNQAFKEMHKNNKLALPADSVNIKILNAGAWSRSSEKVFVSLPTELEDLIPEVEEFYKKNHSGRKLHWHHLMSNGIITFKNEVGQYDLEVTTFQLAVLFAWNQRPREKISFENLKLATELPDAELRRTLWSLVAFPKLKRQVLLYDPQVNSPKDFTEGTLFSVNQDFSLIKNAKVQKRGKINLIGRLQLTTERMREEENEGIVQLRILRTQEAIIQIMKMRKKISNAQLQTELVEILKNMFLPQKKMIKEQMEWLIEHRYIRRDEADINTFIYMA
Experiment: affinity purification with mass spectrometry
Conditions: remark: other sources report otherwise

Molecule	binding
B3	no binding
B4	no binding

These are yes or no findings as the source states them, for the method shown. In cells and extracts the contact can be indirect. A yes stands for co-enrichment or nearness to the bait. Other partners may have been found. For some of these results: No binding means not detected with the bait. For some of these results: Tags and fused reporters may be left off the sequences shown.
